Measured data: PubChem BioAssay AID504808 (Drosophila RNAi Screening Center, 2011)
In all, the deposit lists about 21,000 reagents; this is an unselected part of those that have a named target and a result. In the full data, 18 (0.084%) got an active call. 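Raw counts without plate normalisation, one of two replicates; the ratio scores behind the calls were not deposited.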 Names joined by + are all predicted targets of the reagent. Not stated in the record: the amount of reagent, the time to read-out.

Purpose: 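Genes whose loss lifts activity of an E2F-responsive reporter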 (primary screen)
Cells: Drosophila S2 cells
Knock-down reagent: long dsRNA against Drosophila genes
Measurement: 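Firefly luciferase driven by E2F sites, normalised to Renilla luciferase on the same minimal promoter, measured by plate reader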
Scale: E2F firefly: higher = more E2F reporter activity; Renilla normaliser: higher = more normaliser reporter signal
Rule for the call: 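a knock-down counted as active when the firefly/Renilla E2F signal rose above 50%, a threshold chosen arbitrarily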

| gene knocked down | amplicon | E2F firefly, rep 1 | Renilla normaliser, rep 1 | Outcome |
| --- | --- | --- | --- | --- |
| Rpt3 | DRSC20283 | 67996 | 6539 | inactive |
| CG15322 | DRSC20680 | 1.10e5 | 4383 | inactive |
| CG15167 | DRSC02468 | 1.06e5 | 4684 | inactive |
| Ugt36A1 + CG15418 | DRSC00432 | 1.61e5 | 5075 | inactive |
| CG10384 | DRSC03933 | 1.21e5 | 4416 | inactive |
| CG10384 | DRSC04067 | 86049 | 3897 | inactive |
| CG2129 | DRSC18209 | 7694 | 780 | inactive |
| Kif3C | DRSC17209 | 42356 | 3431 | inactive |
| Kif3C | DRSC17210 | 72279 | 4040 | inactive |
| CG5687 | DRSC08568 | 77049 | 3719 | inactive |
| CG13445 | DRSC09992 | 1.72e5 | 8378 | inactive |
| CG18549 | DRSC15347 | 1.56e5 | 6653 | inactive |
| JMJD7 | DRSC09703 | 51345 | 3263 | inactive |
| Dph5 | DRSC16653 | 62121 | 3577 | inactive |
| geminin | DRSC04984 | 93185 | 4978 | inactive |
| Nup160 | DRSC02774 | 1.24e5 | 4542 | inactive |
| Cyp12c1 | DRSC11125 | 84448 | 3725 | inactive |
| Rpp30 | DRSC00320 | 95686 | 3784 | inactive |
| CG13045 | DRSC09926 | 1.55e5 | 7879 | inactive |
| snoRNA:Me28S-C3420b + RpS11 | DRSC07396 | 97255 | 3815 | inactive |
| Tis11 | DRSC20293 | 5631 | 624 | inactive |
| Oat | DRSC11043 | 74970 | 3765 | inactive |
| Sems | DRSC11626 | 1.25e5 | 6351 | inactive |
| ND-B8 | DRSC00449 | 1.54e5 | 5398 | inactive |
| cact | DRSC03501 | 59130 | 2879 | inactive |
| Su(fu) | DRSC16871 | 66172 | 3784 | inactive |
| Hacd1 | DRSC02988 | 88717 | 3867 | inactive |
| CG13059 | DRSC09942 | 2.00e5 | 10666 | inactive |
| CG14427 | DRSC17921 | 5095 | 302 | inactive |
| CG13970 | DRSC02311 | 99762 | 4447 | inactive |
| cav | DRSC15995 | 68506 | 3212 | inactive |
| Prp38 | DRSC07060 | 2932 | 175 | inactive |
| CG4372 | DRSC04466 | 96467 | 4412 | inactive |
| P5cr-2 | DRSC15889 | 1.19e5 | 6198 | inactive |
| CG7945 + yellow-k | DRSC10851 | 1.64e5 | 7241 | inactive |
| RagA-B | DRSC14450 | 85466 | 3576 | inactive |
| CG11898 | DRSC14432 | 1.27e5 | 6591 | inactive |
| RhoGAP1A | DRSC20649 | 1.39e5 | 6246 | inactive |
| RhoGAP1A | DRSC20651 | 1.35e5 | 6182 | inactive |
| Or65a | DRSC08808 | 1.33e5 | 4968 | inactive |
| CG13196 | DRSC06321 | 1.05e5 | 4137 | inactive |
| CG11050 | DRSC02125 | 65346 | 2929 | inactive |
| CG13058 | DRSC09941 | 1.70e5 | 6967 | inactive |
| kay | DRSC13962 | 74338 | 2311 | inactive |
| kay | DRSC15048 | 77322 | 3699 | inactive |
| kay | DRSC16977 | 2242 | 864 | inactive |
| Sry-beta | DRSC16868 | 1608 | 908 | inactive |

Looked up above.
Entry of kay [DRSC15048] in “Renilla normaliser, rep 1”: 3699
Entry for CG13059 [DRSC09942] under “E2F firefly, rep 1”: 2.00e5
For “Outcome”, CG14427 [DRSC17921] shows inactive
Entry of CG10384 [DRSC04067] under “Outcome”: inactive
Under “E2F firefly, rep 1”, Rpp30 [DRSC00320] reads 95686
For “Renilla normaliser, rep 1”, Sems [DRSC11626] shows 6351

More entries follow.
| gene knocked down | amplicon | E2F firefly, rep 1 | Renilla normaliser, rep 1 | Outcome |
| --- | --- | --- | --- | --- |
| mRpL32 | DRSC14479 | 1.16e5 | 5390 | inactive |
| CG6931 | DRSC10750 | 73801 | 3824 | inactive |
| CheA86a | DRSC12839 | 84022 | 2370 | inactive |
| Rcd4 | DRSC02597 | 1.40e5 | 4918 | inactive |
| CG6052 | DRSC10574 | 1.60e5 | 7155 | inactive |
| Nepl20 | DRSC14878 | 1.13e5 | 5589 | inactive |
| CG2993 | DRSC14284 | 1.27e5 | 6001 | inactive |
| CG2993 | DRSC15457 | 71697 | 3430 | inactive |
| Cp7Fb | DRSC18034 | 1.05e5 | 5573 | inactive |
| scu | DRSC20369 | 1.51e5 | 6168 | inactive |
| CG9040 | DRSC11053 | 1.69e5 | 7867 | inactive |
| BaraC | DRSC03885 | 1.27e5 | 5188 | inactive |
| MFS16 | DRSC04051 | 1.09e5 | 4950 | inactive |
| ACXA | DRSC00844 | 1.01e5 | 4224 | inactive |
| CG14628 | DRSC18626 | 1.09e5 | 6291 | inactive |
| CG5790 | DRSC02896 | 84820 | 3604 | inactive |
| Pms2 | DRSC07511 | 93021 | 3716 | inactive |
| APC10 | DRSC06071 | 1.32e5 | 4718 | inactive |
| Spn38F | DRSC03616 | 90046 | 3869 | inactive |
| Uvrag | DRSC02932 | 77330 | 3288 | inactive |
| CG5516 | DRSC15826 | 1.05e5 | 4880 | inactive |
| drk | DRSC07606 | 139 | 29 | inactive |
| CG9886 | DRSC00732 | 84251 | 3459 | inactive |
| CG3603 | DRSC18317 | 1.16e5 | 6435 | inactive |
| Usp16-45 | DRSC18352 | 7867 | 688 | inactive |
| CG14007 | DRSC02339 | 1.24e5 | 5262 | inactive |
| twz | DRSC04069 | 1.08e5 | 4936 | inactive |
| CkIalpha | DRSC20231 | 1.38e5 | 5862 | inactive |
| sn | DRSC18834 | 50037 | 3681 | inactive |
| CG7745 | DRSC07037 | 2947 | 183 | inactive |
| CG13239 | DRSC11694 | 1.43e5 | 7603 | inactive |
| Cul2 | DRSC03710 | 82683 | 4212 | inactive |
| CG14132 | DRSC10136 | 1.26e5 | 6307 | inactive |
| CG3009 | DRSC18263 | 8449 | 668 | inactive |
| CG17266 | DRSC04979 | 1.04e5 | 4416 | inactive |
| CG6231 | DRSC15997 | 1.61e5 | 7695 | inactive |
| ItgaPS5 | DRSC04501 | 99589 | 4171 | inactive |
